Data reported in the supplement of paper PMC12823440, “Inhibitors supercharge kinase turnover through native proteolytic circuits” (Nature, 2025).
This is one part of the list. The calls rarely recur for the same compound in another form.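 Kinases were expressed as nanoluciferase fusions in K562 cells and luminescence was read every 4 h between 2 and 18 h as percent of control, DMSO set to 100% and a positive control to 0%. A time point counts as decreased when the signal drops significantly (2 sigma). The hit call is the authors' own, does not follow from the count of time points alone, and its rule is not shown.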

Chains of the proteins cited; added tags and fusions are not shown. Lines headed by an entry give the natural chain unless they say otherwise; changes in a name come on top.
UniProt P07949, whole entry, looked up: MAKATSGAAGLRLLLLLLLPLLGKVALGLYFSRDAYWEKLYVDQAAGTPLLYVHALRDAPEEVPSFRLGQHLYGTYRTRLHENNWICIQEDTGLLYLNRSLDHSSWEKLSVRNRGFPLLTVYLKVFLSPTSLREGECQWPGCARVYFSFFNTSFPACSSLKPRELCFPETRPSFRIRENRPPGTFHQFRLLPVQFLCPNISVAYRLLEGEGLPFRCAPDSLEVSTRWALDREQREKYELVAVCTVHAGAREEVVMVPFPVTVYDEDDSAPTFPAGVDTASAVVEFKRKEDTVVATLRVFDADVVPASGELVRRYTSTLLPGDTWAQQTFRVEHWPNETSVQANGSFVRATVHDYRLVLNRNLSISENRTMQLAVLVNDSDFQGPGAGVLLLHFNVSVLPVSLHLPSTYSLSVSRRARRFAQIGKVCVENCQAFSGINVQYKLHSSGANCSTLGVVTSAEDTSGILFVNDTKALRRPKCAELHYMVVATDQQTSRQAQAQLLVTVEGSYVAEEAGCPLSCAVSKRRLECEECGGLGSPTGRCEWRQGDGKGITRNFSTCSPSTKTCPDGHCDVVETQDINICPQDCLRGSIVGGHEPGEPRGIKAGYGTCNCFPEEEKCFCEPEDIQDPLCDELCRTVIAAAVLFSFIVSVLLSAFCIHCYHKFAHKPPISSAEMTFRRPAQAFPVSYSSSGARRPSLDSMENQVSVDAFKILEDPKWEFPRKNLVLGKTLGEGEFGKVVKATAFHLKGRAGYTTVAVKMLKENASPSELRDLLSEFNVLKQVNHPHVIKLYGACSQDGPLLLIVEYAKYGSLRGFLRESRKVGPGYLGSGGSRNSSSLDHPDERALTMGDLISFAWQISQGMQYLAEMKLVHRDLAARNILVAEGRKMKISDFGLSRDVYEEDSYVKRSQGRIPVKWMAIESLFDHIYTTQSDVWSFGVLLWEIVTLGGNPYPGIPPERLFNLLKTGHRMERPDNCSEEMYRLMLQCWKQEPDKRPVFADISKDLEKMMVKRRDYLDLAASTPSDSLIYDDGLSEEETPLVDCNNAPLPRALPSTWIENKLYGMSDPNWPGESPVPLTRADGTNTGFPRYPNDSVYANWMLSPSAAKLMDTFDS
UniProt P07949, whole entry M918T, looked up: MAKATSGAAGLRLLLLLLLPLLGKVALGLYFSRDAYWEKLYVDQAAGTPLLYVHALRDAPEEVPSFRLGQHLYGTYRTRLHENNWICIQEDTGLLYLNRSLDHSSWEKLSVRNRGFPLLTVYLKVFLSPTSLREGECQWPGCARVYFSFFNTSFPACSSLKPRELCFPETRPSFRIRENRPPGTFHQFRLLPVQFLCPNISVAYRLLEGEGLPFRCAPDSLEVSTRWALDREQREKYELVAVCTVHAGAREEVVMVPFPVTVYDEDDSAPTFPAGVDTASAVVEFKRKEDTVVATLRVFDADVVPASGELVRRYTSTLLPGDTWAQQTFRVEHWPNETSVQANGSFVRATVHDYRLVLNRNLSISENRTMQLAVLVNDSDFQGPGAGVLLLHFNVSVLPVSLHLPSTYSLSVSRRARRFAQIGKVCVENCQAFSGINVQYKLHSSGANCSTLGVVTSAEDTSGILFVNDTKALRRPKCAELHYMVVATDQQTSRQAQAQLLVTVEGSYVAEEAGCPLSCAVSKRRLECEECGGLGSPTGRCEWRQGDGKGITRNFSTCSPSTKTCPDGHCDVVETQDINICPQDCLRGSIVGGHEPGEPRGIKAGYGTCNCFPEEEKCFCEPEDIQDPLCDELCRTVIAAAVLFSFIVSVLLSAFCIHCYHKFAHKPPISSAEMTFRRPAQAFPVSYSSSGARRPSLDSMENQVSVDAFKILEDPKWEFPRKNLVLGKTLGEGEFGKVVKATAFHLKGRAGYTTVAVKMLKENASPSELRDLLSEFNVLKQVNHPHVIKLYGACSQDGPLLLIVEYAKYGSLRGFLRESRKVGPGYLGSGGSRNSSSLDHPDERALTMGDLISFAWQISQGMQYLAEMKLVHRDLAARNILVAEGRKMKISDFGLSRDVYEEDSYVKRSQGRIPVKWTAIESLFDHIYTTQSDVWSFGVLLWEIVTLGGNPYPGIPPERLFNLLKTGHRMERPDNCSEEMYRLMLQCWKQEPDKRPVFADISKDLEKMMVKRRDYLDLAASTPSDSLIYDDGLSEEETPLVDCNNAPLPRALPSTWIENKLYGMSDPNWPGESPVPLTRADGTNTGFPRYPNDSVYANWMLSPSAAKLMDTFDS
UniProt Q9BRS2: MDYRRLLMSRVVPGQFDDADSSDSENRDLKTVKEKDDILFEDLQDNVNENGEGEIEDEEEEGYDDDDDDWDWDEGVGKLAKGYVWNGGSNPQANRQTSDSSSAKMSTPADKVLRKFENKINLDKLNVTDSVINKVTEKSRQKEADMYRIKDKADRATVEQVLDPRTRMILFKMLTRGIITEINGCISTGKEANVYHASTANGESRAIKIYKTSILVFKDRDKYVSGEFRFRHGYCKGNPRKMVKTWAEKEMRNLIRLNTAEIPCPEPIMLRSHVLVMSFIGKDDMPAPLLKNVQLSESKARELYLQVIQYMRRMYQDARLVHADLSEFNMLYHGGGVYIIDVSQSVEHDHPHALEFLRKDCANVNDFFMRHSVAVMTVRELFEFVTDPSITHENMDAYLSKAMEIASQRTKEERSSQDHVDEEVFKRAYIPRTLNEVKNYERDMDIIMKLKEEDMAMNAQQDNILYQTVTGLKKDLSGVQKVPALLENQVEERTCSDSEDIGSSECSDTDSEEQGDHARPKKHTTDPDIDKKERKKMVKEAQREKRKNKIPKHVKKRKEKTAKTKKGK
UniProt Q13546: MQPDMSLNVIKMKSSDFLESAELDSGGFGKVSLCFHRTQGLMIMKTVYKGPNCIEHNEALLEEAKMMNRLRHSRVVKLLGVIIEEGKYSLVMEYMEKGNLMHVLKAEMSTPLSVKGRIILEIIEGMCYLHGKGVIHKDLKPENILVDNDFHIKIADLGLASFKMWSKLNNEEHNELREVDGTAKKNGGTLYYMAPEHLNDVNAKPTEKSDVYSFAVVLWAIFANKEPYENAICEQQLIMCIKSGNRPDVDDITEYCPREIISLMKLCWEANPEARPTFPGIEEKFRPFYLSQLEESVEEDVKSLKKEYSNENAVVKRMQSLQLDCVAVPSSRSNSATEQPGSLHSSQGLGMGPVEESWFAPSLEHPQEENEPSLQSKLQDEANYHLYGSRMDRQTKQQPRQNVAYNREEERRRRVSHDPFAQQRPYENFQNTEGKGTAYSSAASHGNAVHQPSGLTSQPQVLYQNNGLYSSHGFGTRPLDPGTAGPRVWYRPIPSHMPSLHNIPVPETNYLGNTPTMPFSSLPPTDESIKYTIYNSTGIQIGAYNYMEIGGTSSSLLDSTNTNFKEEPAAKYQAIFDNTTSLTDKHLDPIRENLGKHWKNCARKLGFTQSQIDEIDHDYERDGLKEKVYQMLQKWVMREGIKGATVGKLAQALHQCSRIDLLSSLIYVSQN
UniProt Q15418, whole entry: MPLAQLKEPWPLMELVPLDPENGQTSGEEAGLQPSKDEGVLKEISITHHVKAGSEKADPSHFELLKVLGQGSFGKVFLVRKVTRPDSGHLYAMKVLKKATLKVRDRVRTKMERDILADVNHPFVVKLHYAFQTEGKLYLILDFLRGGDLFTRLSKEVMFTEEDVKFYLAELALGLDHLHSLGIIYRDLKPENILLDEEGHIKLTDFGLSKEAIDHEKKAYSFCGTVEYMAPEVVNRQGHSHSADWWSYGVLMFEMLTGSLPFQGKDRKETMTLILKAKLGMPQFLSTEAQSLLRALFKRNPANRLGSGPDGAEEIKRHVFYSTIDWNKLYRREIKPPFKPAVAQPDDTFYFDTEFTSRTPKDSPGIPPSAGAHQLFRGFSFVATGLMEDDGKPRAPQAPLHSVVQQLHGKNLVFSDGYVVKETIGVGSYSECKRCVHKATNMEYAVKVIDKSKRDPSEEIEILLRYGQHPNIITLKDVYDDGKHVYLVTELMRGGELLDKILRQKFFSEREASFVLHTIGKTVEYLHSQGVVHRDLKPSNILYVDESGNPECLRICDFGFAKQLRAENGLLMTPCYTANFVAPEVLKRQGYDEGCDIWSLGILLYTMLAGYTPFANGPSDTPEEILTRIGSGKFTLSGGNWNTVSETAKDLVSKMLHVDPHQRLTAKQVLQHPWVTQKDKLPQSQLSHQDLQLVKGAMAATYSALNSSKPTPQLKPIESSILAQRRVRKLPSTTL
UniProt Q15208: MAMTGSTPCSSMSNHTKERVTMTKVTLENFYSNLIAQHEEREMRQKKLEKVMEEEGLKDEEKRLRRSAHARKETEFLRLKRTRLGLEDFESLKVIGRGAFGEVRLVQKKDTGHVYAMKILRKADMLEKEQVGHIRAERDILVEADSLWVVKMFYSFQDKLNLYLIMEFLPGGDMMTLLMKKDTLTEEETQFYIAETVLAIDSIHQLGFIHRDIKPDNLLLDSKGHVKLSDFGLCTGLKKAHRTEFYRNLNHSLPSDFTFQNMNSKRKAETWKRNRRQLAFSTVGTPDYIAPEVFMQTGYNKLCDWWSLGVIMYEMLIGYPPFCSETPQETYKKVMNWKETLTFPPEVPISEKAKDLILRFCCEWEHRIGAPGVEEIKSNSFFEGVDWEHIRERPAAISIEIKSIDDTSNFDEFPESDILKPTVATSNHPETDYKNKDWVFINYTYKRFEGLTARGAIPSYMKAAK
UniProt P42680: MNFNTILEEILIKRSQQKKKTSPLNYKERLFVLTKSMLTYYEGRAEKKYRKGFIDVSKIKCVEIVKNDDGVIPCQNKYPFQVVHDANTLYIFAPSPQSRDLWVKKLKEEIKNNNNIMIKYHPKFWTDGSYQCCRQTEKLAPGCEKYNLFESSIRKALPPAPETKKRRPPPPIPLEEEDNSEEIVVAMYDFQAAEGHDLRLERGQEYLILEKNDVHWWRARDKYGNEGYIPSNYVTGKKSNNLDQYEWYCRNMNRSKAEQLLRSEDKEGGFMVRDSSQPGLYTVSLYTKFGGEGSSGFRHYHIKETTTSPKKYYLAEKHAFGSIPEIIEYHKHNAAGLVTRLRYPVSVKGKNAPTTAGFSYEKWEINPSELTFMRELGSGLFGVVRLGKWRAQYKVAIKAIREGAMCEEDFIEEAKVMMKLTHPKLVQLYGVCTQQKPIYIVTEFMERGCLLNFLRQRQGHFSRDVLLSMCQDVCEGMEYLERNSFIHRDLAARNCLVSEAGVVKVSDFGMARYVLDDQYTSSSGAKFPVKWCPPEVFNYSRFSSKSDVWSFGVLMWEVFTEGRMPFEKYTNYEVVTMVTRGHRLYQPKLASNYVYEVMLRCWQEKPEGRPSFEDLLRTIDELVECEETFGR
UniProt Q6PHR2: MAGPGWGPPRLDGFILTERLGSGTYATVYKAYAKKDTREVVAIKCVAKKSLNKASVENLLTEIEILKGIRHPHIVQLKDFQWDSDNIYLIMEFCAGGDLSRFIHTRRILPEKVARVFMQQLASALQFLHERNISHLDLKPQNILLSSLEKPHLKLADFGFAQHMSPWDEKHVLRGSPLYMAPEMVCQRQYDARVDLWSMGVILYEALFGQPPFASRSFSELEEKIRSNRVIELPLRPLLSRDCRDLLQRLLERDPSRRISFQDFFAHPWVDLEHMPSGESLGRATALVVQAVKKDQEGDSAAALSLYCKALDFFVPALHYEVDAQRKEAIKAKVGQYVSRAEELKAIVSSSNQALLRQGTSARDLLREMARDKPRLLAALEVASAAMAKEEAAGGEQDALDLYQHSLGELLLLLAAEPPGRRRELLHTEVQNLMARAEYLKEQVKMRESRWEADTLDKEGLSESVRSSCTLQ
UniProt P07947, whole entry, looked up: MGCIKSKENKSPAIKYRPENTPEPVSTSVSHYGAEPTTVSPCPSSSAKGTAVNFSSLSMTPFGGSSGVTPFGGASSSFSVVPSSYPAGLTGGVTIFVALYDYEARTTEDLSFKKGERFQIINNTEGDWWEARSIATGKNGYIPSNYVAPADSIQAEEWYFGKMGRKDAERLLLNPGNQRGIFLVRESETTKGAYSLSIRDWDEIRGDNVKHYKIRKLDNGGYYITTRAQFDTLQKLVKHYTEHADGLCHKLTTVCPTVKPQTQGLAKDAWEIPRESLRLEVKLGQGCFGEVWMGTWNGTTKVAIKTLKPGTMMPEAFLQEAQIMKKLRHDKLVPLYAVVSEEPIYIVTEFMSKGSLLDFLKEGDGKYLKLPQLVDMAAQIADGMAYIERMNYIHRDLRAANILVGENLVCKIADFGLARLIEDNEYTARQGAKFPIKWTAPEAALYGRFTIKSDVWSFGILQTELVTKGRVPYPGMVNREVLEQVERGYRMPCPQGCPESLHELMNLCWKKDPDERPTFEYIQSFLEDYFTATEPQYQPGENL

What was measured:
RET = RET (UniProt P07949); experiment: kinase-Nluc reporter destabilization hit call (1 = scored as downregulated) (binary); higher = compound decreases kinase abundance; settings: 2.5 µM; K562; 2-18 h
[1] = molecular target: RET_M918T (clone: RET_mut) (UniProt P07949); experiment: as above; settings: K562, 2-18 h
RIOK1 = RIOK1 (UniProt Q9BRS2); experiment: as above; settings: K562, 2-18 h
RIPK1 = RIPK1 (UniProt Q13546); experiment: as above; settings: K562, 2-18 h
RIPK2 = RIPK2 (UniProt O43353); experiment: as above; settings: K562, 2-18 h
ROR2 = ROR2 (UniProt Q01974); experiment: as above; settings: K562, 2-18 h
RPS6KA1 = RPS6KA1 (UniProt Q15418); experiment: as above; settings: K562, 2-18 h
SPHK1 = SPHK1 (UniProt Q9NYA1); experiment: as above; settings: K562, 2-18 h
STK24 = STK24 (UniProt Q9Y6E0); experiment: as above; settings: K562, 2-18 h
STK38 = STK38 (UniProt Q15208); experiment: as above; settings: K562, 2-18 h
TEC = TEC (UniProt P42680); experiment: as above; settings: K562, 2-18 h
TYK2 = TYK2 (UniProt P29597); experiment: as above; settings: K562, 2-18 h
ULK3 = ULK3 (UniProt Q6PHR2); experiment: as above; settings: K562, 2-18 h
YES1 = YES1 (UniProt P07947); experiment: as above; settings: K562, 2-18 h
ZAP70 = ZAP70 (UniProt P43403); experiment: as above; settings: K562, 2-18 h
CDK4 = CDK4 (UniProt P11802); experiment: number of time points (of 4; 2 h point missing) at which kinase-Nluc abundance scored as decreased, DMSO-normalised (count); higher = more persistent destabilization; settings: K562, 2-18 h
CDK7 = CDK7 (UniProt P50613); experiment: as above; settings: K562, 2-18 h
SRC = SRC (UniProt P12931); experiment: kinase-Nluc reporter destabilization hit call (1 = scored as downregulated) (binary); higher = compound decreases kinase abundance; settings: K562, 2-18 h
SYK = SYK (UniProt P43405); experiment: as above; settings: K562, 2-18 h
ZAK = ZAK (UniProt Q9NYL2); experiment: as above; settings: K562, 2-18 h

CCN(CC)CCNC(=O)c1c(C)[nH]c(/C=C2\C(=O)Nc3ccc(F)cc32)c1C [Sunitinib]
inactive: kinase-Nluc reporter destabilization hit call (RET) 0 | kinase-Nluc reporter destabilization hit call ([1]; 2.5 µM) 0 | kinase-Nluc reporter destabilization hit call (RIOK1; 2.5 µM) 0 | kinase-Nluc reporter destabilization hit call (RIPK1; 2.5 µM) 0 | kinase-Nluc reporter destabilization hit call (RIPK2; 2.5 µM) 0 | kinase-Nluc reporter destabilization hit call (ROR2; 2.5 µM) 0 | kinase-Nluc reporter destabilization hit call (RPS6KA1; 2.5 µM) 0 | kinase-Nluc reporter destabilization hit call (SPHK1; 2.5 µM) 0 | kinase-Nluc reporter destabilization hit call (STK24; 2.5 µM) 0 | kinase-Nluc reporter destabilization hit call (STK38; 2.5 µM) 0 | kinase-Nluc reporter destabilization hit call (TEC; 2.5 µM) 0 | kinase-Nluc reporter destabilization hit call (TYK2; 2.5 µM) 0 | kinase-Nluc reporter destabilization hit call (ULK3; 2.5 µM) 0 | kinase-Nluc reporter destabilization hit call (YES1; 2.5 µM) 0 | kinase-Nluc reporter destabilization hit call (ZAP70; 2.5 µM) 0
0: number of time points (CDK4; 2.5 µM) | number of time points (CDK7; 2.5 µM)

Fc1ccc(-c2nc(-c3ccc4ccccc4c3F)[nH]c2-c2ccncc2)cc1
0: number of time points (CDK4; 10 µM) | number of time points (CDK7; 10 µM)
active: kinase-Nluc reporter destabilization hit call (TYK2; 10 µM) 1
inactive: kinase-Nluc reporter destabilization hit call ([1]; 10 µM) 0 | kinase-Nluc reporter destabilization hit call (RIOK1; 10 µM) 0 | kinase-Nluc reporter destabilization hit call (RIPK1; 10 µM) 0 | kinase-Nluc reporter destabilization hit call (RIPK2; 10 µM) 0 | kinase-Nluc reporter destabilization hit call (ROR2; 10 µM) 0 | kinase-Nluc reporter destabilization hit call (RPS6KA1; 10 µM) 0 | kinase-Nluc reporter destabilization hit call (SPHK1; 10 µM) 0 | kinase-Nluc reporter destabilization hit call (SRC; 10 µM) 0 | kinase-Nluc reporter destabilization hit call (STK24; 10 µM) 0 | kinase-Nluc reporter destabilization hit call (STK38; 10 µM) 0 | kinase-Nluc reporter destabilization hit call (SYK; 10 µM) 0 | kinase-Nluc reporter destabilization hit call (TEC; 10 µM) 0 | kinase-Nluc reporter destabilization hit call (ULK3; 10 µM) 0 | kinase-Nluc reporter destabilization hit call (YES1; 10 µM) 0 | kinase-Nluc reporter destabilization hit call (ZAK; 10 µM) 0 | kinase-Nluc reporter destabilization hit call (ZAP70; 10 µM) 0

CC(C)n1nc(-c2cc3cc(O)ccc3[nH]2)c2c(N)ncnc21 [Torkinib]
0: number of time points (CDK4; 2.5 µM) | number of time points (CDK7; 2.5 µM)
inactive: kinase-Nluc reporter destabilization hit call (RET) 0 | kinase-Nluc reporter destabilization hit call ([1]; 2.5 µM) 0 | kinase-Nluc reporter destabilization hit call (RIOK1; 2.5 µM) 0 | kinase-Nluc reporter destabilization hit call (RIPK1; 2.5 µM) 0 | kinase-Nluc reporter destabilization hit call (RIPK2; 2.5 µM) 0 | kinase-Nluc reporter destabilization hit call (ROR2; 2.5 µM) 0 | kinase-Nluc reporter destabilization hit call (RPS6KA1; 2.5 µM) 0 | kinase-Nluc reporter destabilization hit call (SPHK1; 2.5 µM) 0 | kinase-Nluc reporter destabilization hit call (STK24; 2.5 µM) 0 | kinase-Nluc reporter destabilization hit call (STK38; 2.5 µM) 0 | kinase-Nluc reporter destabilization hit call (SYK; 2.5 µM) 0 | kinase-Nluc reporter destabilization hit call (TEC; 2.5 µM) 0 | kinase-Nluc reporter destabilization hit call (TYK2; 2.5 µM) 0 | kinase-Nluc reporter destabilization hit call (ULK3; 2.5 µM) 0 | kinase-Nluc reporter destabilization hit call (YES1; 2.5 µM) 0 | kinase-Nluc reporter destabilization hit call (ZAK; 2.5 µM) 0 | kinase-Nluc reporter destabilization hit call (ZAP70; 2.5 µM) 0

Cc1[nH]c(/C=C2\C(=O)Nc3ccc(F)cc32)c(C)c1C(=O)NC[C@H](O)CN1CCOCC1
0: number of time points (CDK4; 2.5 µM) | number of time points (CDK7; 2.5 µM)
inactive: kinase-Nluc reporter destabilization hit call (RET) 0 | kinase-Nluc reporter destabilization hit call ([1]; 2.5 µM) 0 | kinase-Nluc reporter destabilization hit call (RIOK1; 2.5 µM) 0 | kinase-Nluc reporter destabilization hit call (RIPK1; 2.5 µM) 0 | kinase-Nluc reporter destabilization hit call (RIPK2; 2.5 µM) 0 | kinase-Nluc reporter destabilization hit call (ROR2; 2.5 µM) 0 | kinase-Nluc reporter destabilization hit call (SPHK1; 2.5 µM) 0 | kinase-Nluc reporter destabilization hit call (SRC; 2.5 µM) 0 | kinase-Nluc reporter destabilization hit call (STK24; 2.5 µM) 0 | kinase-Nluc reporter destabilization hit call (STK38; 2.5 µM) 0 | kinase-Nluc reporter destabilization hit call (SYK; 2.5 µM) 0 | kinase-Nluc reporter destabilization hit call (TEC; 2.5 µM) 0 | kinase-Nluc reporter destabilization hit call (TYK2; 2.5 µM) 0 | kinase-Nluc reporter destabilization hit call (ULK3; 2.5 µM) 0 | kinase-Nluc reporter destabilization hit call (YES1; 2.5 µM) 0 | kinase-Nluc reporter destabilization hit call (ZAK; 2.5 µM) 0 | kinase-Nluc reporter destabilization hit call (ZAP70; 2.5 µM) 0

Cc1cc(Nc2cc(N3CCN(C)CC3)nc(/C=C/c3ccccc3)n2)n[nH]1 [ENMD-2076 (Tartrate)]
0: number of time points (CDK4; 2.5 µM) | number of time points (CDK7; 2.5 µM)
inactive: kinase-Nluc reporter destabilization hit call (RET) 0 | kinase-Nluc reporter destabilization hit call ([1]; 2.5 µM) 0 | kinase-Nluc reporter destabilization hit call (RIOK1; 2.5 µM) 0 | kinase-Nluc reporter destabilization hit call (RIPK1; 2.5 µM) 0 | kinase-Nluc reporter destabilization hit call (RIPK2; 2.5 µM) 0 | kinase-Nluc reporter destabilization hit call (ROR2; 2.5 µM) 0 | kinase-Nluc reporter destabilization hit call (RPS6KA1; 2.5 µM) 0 | kinase-Nluc reporter destabilization hit call (SPHK1; 2.5 µM) 0 | kinase-Nluc reporter destabilization hit call (SRC; 2.5 µM) 0 | kinase-Nluc reporter destabilization hit call (STK24; 2.5 µM) 0 | kinase-Nluc reporter destabilization hit call (STK38; 2.5 µM) 0 | kinase-Nluc reporter destabilization hit call (TEC; 2.5 µM) 0 | kinase-Nluc reporter destabilization hit call (TYK2; 2.5 µM) 0 | kinase-Nluc reporter destabilization hit call (ULK3; 2.5 µM) 0 | kinase-Nluc reporter destabilization hit call (YES1; 2.5 µM) 0 | kinase-Nluc reporter destabilization hit call (ZAK; 2.5 µM) 0 | kinase-Nluc reporter destabilization hit call (ZAP70; 2.5 µM) 0
